# Assay results taken from the supplement of paper PMC10338343.
# ± gives the standard deviation. Some of the results follow. The uncertainty is large for many entries.
# Tested on: EfPiwi piRISC loaded with L1MC piRNA (26 nt)
# Assay: pre-steady-state target cleavage rate (min^-1); guide: L1MC piRNA 5'p-UAACUAAAUACUAUGCAAGCUGUAGG; MIWI and MILI are mouse PIWI proteins and EfPiwi is from a freshwater sponge; tags in brackets are library labels; higher = faster piRNA-guided slicing of the target
# Details: auxiliary factor: 500 nM Ephydatia muelleri Gtsf1
# Experimental: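 Cleave-'n-Seq: a library of target RNAs (target site in constant flanks) at […] was incubated with 1 nM active freshwater sponge Ephydatia fluviatilis Piwi piRISC (synthetic 5'-monophosphorylated piRNA guide) with or without 500 nM EmGtsf1 at 33 °C for 1 min to 16 h. Uncleaved targets were sequenced and the pooled three trials fitted to a burst-and-steady-state model to give the pre-steady-state cleavage rate (min^-1). Sequence is the target site only. Fits with R² ≤ 0 are excluded.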
row,Sequence,pre-steady-state target cleavage rate
1,UCCUGGAUGUGCAUGCAUAGUAUAUAGUUA,0.000432 ± 0.011
2,UCCUGGAACAGCUUGCAUAGAUAUUAGAAA,0.00054 ± 0.0059
3,UCCUGGAUGUGCUUGCAUAGUAUUUCAGUUA,0.000746 ± 0.0051
4,UCCUGGAUCAGCUUGCAUAGUAUUUAAGUUA,0.00608 ± 0.0023
5,UCCUCCUACAGCUUGCAUACAUUUUACAAA,0.0011 ± 0.0072
6,UCCUGGAUGUCGAUGCAUAGUAUUUAUGUUA,0.000457 ± 0.007
7,UCCUGGUACAGCUUGCAUAGUAUUUUCAAA,0.00252 ± 0.003
8,UCCUGGAACAGCAACCAUAGUAUUUAGUUA,0.00435 ± 0.0049
9,UCCUGGAUGUCGAACCCUAGUAUUUAGUUA,< 0.0001
10,UCCUGGUAGUCCUUGCAUAGUAUUUUCAAA,0.000464 ± 0.0086
11,UCCUGGAUGUCGUAGCAUAGUAAUUAGUUA,0.000331 ± 0.012
12,UCCUGGAUGUCCUUCGAUAGUAUUUAGUUA,0.000374 ± 0.007
13,UCCUGCUACAGCUUGCAUAGUUUUUAGUUA,0.00538 ± 0.0021
14,UCCUGGAUGUCGAAGCAUAGUUUUUUGUUA,0.00014 ± 0.032
15,UCCUGGAUGUGCUUGCAUAGAUUUUAGAAA,0.000738 ± 0.0042
16,UCCUGGAACAGCUUGCAUACAUUUUAGUUA,0.00022 ± 0.021
17,UCCUGGAUGUCGAUGCAUACUAUUUUGUUA,0.000154 ± 0.022
18,UCCUGGAUCAGCUUGCAUAGUAUUAUGUAA,0.000969 ± 0.0041
19,UCCUGGAUGUCGAUGCUUAGUAUUUAGUUA,0.00134 ± 0.0043
20,UCCUCCUACAGCCUGCAUAGUAUUUAGUUA,0.0698 ± 0.018
21,UCCUGGAUGUGGAAGCAUAGUAUUUAGAAA,0.00125 ± 0.0076
22,UCCUGGAACAGCUUGCAUAGUUUUAGUUA,0.00165 ± 0.0024
23,UCCUGGAUGUCCUUGCAUCGUAUUUAGUUA,0.00301 ± 0.0036
24,UCCUGGAUGUGCUUGCAUAGUAUUAACUUA,0.000303 ± 0.019

# Same assay, conditions: auxiliary factor: none (no Gtsf1)
row,Sequence,pre-steady-state target cleavage rate
1,UCCUGGAACAGCUUGCAUAGAUAUUAGAAA,0.000274 ± 0.018
2,UCCUGGAUGUGCUUGCAUAGUAUUUCAGUUA,0.00035 ± 0.027
3,UCCUGGAUCAGCUUGCAUAGUAUUUAAGUUA,0.00215 ± 0.0073
4,UCCUGGUACAGCUUGCAUAGUAUUUUCAAA,0.00056 ± 0.018
5,UCCUGGAUGUCGAACCCUAGUAUUUAGUUA,< 0.0001
6,UCCUGGUAGUCCUUGCAUAGUAUUUUCAAA,0.000142 ± 0.061
7,UCCUGGAUGUCCUUCGAUAGUAUUUAGUUA,< 0.0001
8,UCCUGCUACAGCUUGCAUAGUUUUUAGUUA,0.000612 ± 0.0075
9,UCCUGGAACAGCUUGCAUACAUUUUAGUUA,0.000158 ± 0.038
10,UCCUGGAUCAGCUUGCAUAGUAUUAUGUAA,0.000317 ± 0.029
11,UCCUGGAUGUCGAUGCUUAGUAUUUAGUUA,0.000493 ± 0.013
12,UCCUGGAUGUGGAAGCAUAGUAUUUAGAAA,0.00199 ± 0.0076
13,UCCUGGAACAGCUUGCAUAGUUUUAGUUA,0.000185 ± 0.045
14,UCCUGGAUGUCCUUGCAUCGUAUUUAGUUA,0.000337 ± 0.013
15,UCCUGGAUGUGCUUGCAUAGUAUUAACUUA,0.000318 ± 0.026
